This is an account of results in PMC9531299.

Experiment [1] addresses T1, endogenous RNF145 (human (endogenous in HEK‐293T)) (UniProt Q96MT1).
T1 sequence: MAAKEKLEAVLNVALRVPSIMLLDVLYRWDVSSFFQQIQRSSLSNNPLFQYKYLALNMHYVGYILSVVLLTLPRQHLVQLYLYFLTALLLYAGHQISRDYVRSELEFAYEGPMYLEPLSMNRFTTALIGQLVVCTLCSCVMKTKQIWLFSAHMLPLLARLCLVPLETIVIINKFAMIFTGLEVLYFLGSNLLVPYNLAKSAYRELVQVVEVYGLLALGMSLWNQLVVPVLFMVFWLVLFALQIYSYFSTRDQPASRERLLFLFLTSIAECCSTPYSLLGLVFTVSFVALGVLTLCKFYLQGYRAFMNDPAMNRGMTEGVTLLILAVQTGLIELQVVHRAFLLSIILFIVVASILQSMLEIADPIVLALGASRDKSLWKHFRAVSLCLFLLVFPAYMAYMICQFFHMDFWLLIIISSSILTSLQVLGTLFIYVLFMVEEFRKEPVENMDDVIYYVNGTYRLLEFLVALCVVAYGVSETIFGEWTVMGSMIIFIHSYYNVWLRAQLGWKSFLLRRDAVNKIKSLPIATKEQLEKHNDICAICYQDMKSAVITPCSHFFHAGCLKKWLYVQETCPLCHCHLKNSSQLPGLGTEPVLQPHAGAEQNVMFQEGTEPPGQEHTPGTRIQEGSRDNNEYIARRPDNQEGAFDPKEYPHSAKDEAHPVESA
The experiment is described as follows: co-IP; immunoprecipitation of endogenous RNF145 from HEK‐293T cells depleted of UBE2G2 (gUBE2G2), treated for 3 h with BSA (control) or 400 μM OA; immunoblot for ADIPOR2. For orientation: A western blot detects proteins with antibodies after separation by electrophoresis.

Experiment [2] deals with T1, endogenous RNF145 (human (endogenous in HEK‐293T)). The experiment is described as follows: condition: only cells treated with PA (400 μM, 3 h); co-IP; immunoprecipitation of endogenous RNF145 from HEK‐293T cells depleted of UBE2G2 (gUBE2G2), treated for 3 h with 400 μM PA; immunoblot for ADIPOR2.
In experiment [3] the target is T2, RNF145^(C552A, H554A)‐V5, catalytically inactive RING‐domain mutant (UniProt Q96MT1).
T2 sequence: T1 sequence with C552A, H554A
The experiment can be described thus: co-IP; anti‐V5 immunoprecipitation from HeLa ∆RNF145 cells complemented with V5‐tagged RNF145; cells treated with VCP inhibitor (NMS‐873, 10 μM, 90 min) before; lysis in 1% digitonin, 10 mM TRIS, 150 mM NaCl, pH 7.4; elution with V5 peptide; immunoblot.

Changes are numbered by the printed parent chain. These are yes or no findings as the source states them, for the method shown. In cells and extracts the contact can be indirect. Some entries that bind do so weakly or less than the wild type. For part of these data: Tags and fused reporters may be left off the sequences shown.

B1: endogenous ADIPOR2 (adiponectin receptor 2) (protein, UniProt Q86V24 1-386)
chain: MNEPTENRLGCSRTPEPDIRLRKGHQLDGTRRGDNDSHQGDLEPILEASVLSSHHKKSSEEHEYSDEAPQEDEGFMGMSPLLQAHHAMEKMEEFVCKVWEGRWRVIPHDVLPDWLKDNDFLLHGHRPPMPSFRACFKSIFRIHTETGNIWTHLLGCVFFLCLGIFYMFRPNISFVAPLQEKVVFGLFFLGAILCLSFSWLFHTVYCHSEGVSRLFSKLDYSGIALLIMGSFVPWLYYSFYCNPQPCFIYLIVICVLGIAAIIVSQWDMFATPQYRGVRAGVFLGLGLSGIIPTLHYVISEGFLKAATIGQIGWLMLMASLYITGAALYAARIPERFFPGKCDIWFHSHQLFHIFVVAGAFVHFHGVSNLQEFRFMIGGGCSEEDAL
As for B1, the figures for the binding entry in experiment [1], in experiment [2] and in experiment [3] were “binds”, “no binding” and “binds”, respectively.
